Results are given in words; binding and its absence hold for the method and conditions named. In cells and extracts the contact can be indirect. Some binding calls cover weakened binding; strength is not graded here.
Biological target: Myc-DDK tagged TSPO construct (translocator protein 18kDa) (UniProt P30536)
Experiment: co-IP

Chains of the proteins cited; added tags and fusions are not shown.
UniProt P30536: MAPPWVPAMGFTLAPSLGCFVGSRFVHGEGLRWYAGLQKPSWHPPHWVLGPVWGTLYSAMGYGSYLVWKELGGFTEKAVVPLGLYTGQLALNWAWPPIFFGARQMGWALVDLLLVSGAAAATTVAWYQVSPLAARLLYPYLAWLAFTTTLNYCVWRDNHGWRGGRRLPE
UniProt P21796: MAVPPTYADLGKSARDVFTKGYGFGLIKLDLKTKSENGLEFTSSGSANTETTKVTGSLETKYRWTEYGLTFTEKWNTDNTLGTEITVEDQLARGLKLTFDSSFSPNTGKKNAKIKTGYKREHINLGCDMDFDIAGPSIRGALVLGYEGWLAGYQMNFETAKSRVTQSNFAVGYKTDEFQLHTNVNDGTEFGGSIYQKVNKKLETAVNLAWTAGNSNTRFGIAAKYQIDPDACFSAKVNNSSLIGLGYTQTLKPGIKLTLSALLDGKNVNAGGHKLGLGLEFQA

voltage dependent anion channel 1 (VDAC1), endogenous in U373 cells (from UniProt P21796 1-283)
binding: binds

— doi:10.1101/2023.09.29.560159
